# Experimental data: PubChem BioAssay AID1259327 (Drosophila RNAi Screening Center, 2017)
# Assay: 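Baseline ATP after transmembrane-protein gene knock-down with water vehicle only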
# System: Drosophila S2R+ cells
# Knock-down reagent: long dsRNA against Drosophila genes
# Time to read-out: 5 days (water added on day 4, read one day later)
# Challenge: water added as vehicle, no metal, one day before read-out
# Measured: 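Total ATP measured by luciferase light, scaled to plate mean, duplicates averaged, then z-scored across plates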
# Scale: ATP z-score: higher = more total ATP than typical wells; ATP luminescence: higher = more total ATP
# Rule for the call: 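Called active when the ATP z-score exceeds 1.5 or falls below -1.5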
# Meaning of the calls: active = hit: ATP up or down; inactive = no clear ATP change
# The whole screen tested about 3,100 reagents; this is an unselected part. 378 of all reagents (12%) were called active. 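Hits include both directions; z-score sign shows ATP rise or fall; raw luminescence values are not plate-normalised.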 A plus sign joins genes that one reagent is predicted to hit. Reagent sequences are not shown. Not stated in the record: the amount of reagent.
gene,amplicon,"ATP z-score, duplicate mean","ATP luminescence, replicate 1 (RLU)","ATP luminescence, replicate 2 (RLU)",Call
app,DRSC09159,-0.392,6.51e5,7.52e5,inactive
app,DRSC25682,-0.96,7.50e5,7.12e5,inactive
Gr28b,DRSC02291,0.791,8.07e5,8.13e5,inactive
Gr28b,DRSC02292,0.0824,9.46e5,8.69e5,inactive
Gr28b,DRSC29459,-0.523,8.29e5,6.96e5,inactive
Lerp,DRSC14751,1.75,6.26e5,6.67e5,active
Lerp,DRSC16030,1.7,6.17e5,7.95e5,active
Lerp,DRSC16031,-0.512,5.53e5,1.05e6,inactive
Gr98b,DRSC21675,3.04,6.95e5,9.82e5,active
Gr98b,DRSC39891,0.0591,5.14e5,6.73e5,inactive
CG7514,DRSC08597,0.155,9.03e5,9.28e5,inactive
CG7514,DRSC25670,2.69,8.03e5,1.57e6,active
CG7992,DRSC20070,-0.495,6.72e5,7.06e5,inactive
Vang,DRSC07570,-0.525,5.58e5,5.86e5,inactive
CR12628 + Mgstl,DRSC03702,-2.83,4.29e5,5.84e5,active
CR12628 + Mgstl,DRSC20568,-0.59,6.92e5,6.64e5,inactive
Or67b,DRSC11241,-1.02,7.89e5,7.38e5,inactive
Or67b,DRSC39658,-0.713,3.94e5,4.41e5,inactive
CG31787,DRSC01632,-0.344,6.85e5,7.26e5,inactive
caps,DRSC11333,-0.0994,8.84e5,8.82e5,inactive
caps,DRSC22224,-0.951,6.83e5,7.82e5,inactive
CG6749,DRSC10704,0.464,1.06e6,8.60e5,inactive
CG6749,DRSC39546,-0.732,4.22e5,3.87e5,inactive
Spase25,DRSC19776,0.868,7.81e5,8.09e5,inactive
Spase25,DRSC39745,0.449,3.97e5,5.98e5,inactive
CG31729,DRSC02524,-0.157,4.43e5,4.95e5,inactive
CG31729,DRSC02946,0.129,7.36e5,7.44e5,inactive
CG31729,DRSC25841,0.505,9.39e5,8.87e5,inactive
yin,DRSC21889,0.279,6.33e5,5.73e5,inactive
yin,DRSC39804,1.52,5.91e5,5.79e5,active
Psn,DRSC11743,-0.646,8.31e5,7.92e5,inactive
Or71a,DRSC11244,-0.829,8.26e5,7.50e5,inactive
Or71a,DRSC39566,-0.5,4.43e5,4.19e5,inactive
CG15408,DRSC00423,0.457,7.79e5,7.28e5,inactive
CG15408,DRSC39715,0.412,4.40e5,5.49e5,inactive
CG10183,DRSC14203,0.772,3.25e5,8.68e5,inactive
CG10183,DRSC25343,-0.0573,8.33e5,8.54e5,inactive
para,DRSC19141,1.37,6.77e5,8.10e5,inactive
para,DRSC20360,-0.28,5.35e5,6.58e5,inactive
Vha100-3,DRSC05760,0.847,8.47e5,8.21e5,inactive
Vha100-3,DRSC39558,-0.152,4.87e5,4.22e5,inactive
Or13a,DRSC20265,-0.293,6.58e5,8.23e5,inactive
Or13a,DRSC39651,-1.07,4.08e5,3.76e5,inactive

Next part; the last 10 above are carried over.
gene,amplicon,"ATP z-score, duplicate mean","ATP luminescence, replicate 1 (RLU)","ATP luminescence, replicate 2 (RLU)",Call
CG15408,DRSC00423,0.457,7.79e5,7.28e5,inactive
CG15408,DRSC39715,0.412,4.40e5,5.49e5,inactive
CG10183,DRSC14203,0.772,3.25e5,8.68e5,inactive
CG10183,DRSC25343,-0.0573,8.33e5,8.54e5,inactive
para,DRSC19141,1.37,6.77e5,8.10e5,inactive
para,DRSC20360,-0.28,5.35e5,6.58e5,inactive
Vha100-3,DRSC05760,0.847,8.47e5,8.21e5,inactive
Vha100-3,DRSC39558,-0.152,4.87e5,4.22e5,inactive
Or13a,DRSC20265,-0.293,6.58e5,8.23e5,inactive
Or13a,DRSC39651,-1.07,4.08e5,3.76e5,inactive
Gr5a,DRSC18085,-0.0984,6.39e5,6.56e5,inactive
rk,DRSC03602,-0.172,7.73e5,6.44e5,inactive
Cngl,DRSC20318,1.16,5.06e5,7.73e5,inactive
Cngl,DRSC23577,-0.0575,8.21e5,8.66e5,inactive
CG31445,DRSC14443,0.117,7.33e5,7.03e5,inactive
CG31445,DRSC28642,1.83,1.08e6,1.01e6,active
Zip71B,DRSC09686,-0.0612,8.98e5,8.78e5,inactive
Zip71B,DRSC29491,-0.00402,8.46e5,8.01e5,inactive
osy,DRSC14903,-0.617,5.34e5,6.87e5,inactive
osy,DRSC15979,-0.22,6.88e5,7.51e5,inactive
osy,DRSC15981,1.47,8.92e5,8.24e5,inactive
nrv3,DRSC03097,-1.08,6.05e5,6.17e5,inactive
acs,DRSC08185,0.42,5.87e5,7.28e5,inactive
acs,DRSC27629,0.653,1.12e6,1.16e6,inactive
ZnT77C,DRSC11766,-0.47,8.24e5,8.43e5,inactive
ZnT77C,DRSC11767,-0.0788,7.60e5,7.06e5,inactive
CG45049,DRSC16163,0.199,3.03e5,7.98e5,inactive
CG45049,DRSC23175,0.564,6.94e5,5.60e5,inactive
CG7227,DRSC03032,-0.298,4.62e5,4.54e5,inactive
CG7227,DRSC39466,0.626,4.97e5,4.92e5,inactive
CG14160,DRSC10161,0.212,9.83e5,8.66e5,inactive
CG32988,DRSC02692,-0.311,7.20e5,6.67e5,inactive
Cad88C,DRSC15486,-0.392,2.74e5,7.39e5,inactive
Cad88C,DRSC26126,0.0842,8.57e5,8.64e5,inactive
Alk,DRSC23342,-1.83,3.70e5,4.79e5,active
Alk,DRSC36972,-1.44,5.12e5,4.04e5,inactive
Alk,DRSC36973,-0.0388,6.02e5,5.51e5,inactive
